Experimental data from paper doi:10.1101/2022.07.12.499818.
Read-outs that look alike come from different tables or passages of the source. Results are given in words; binding and its absence hold for the method and conditions named. For part of these data: In cells and extracts the contact can be indirect. Some binding calls cover weakened binding; strength is not graded here. For part of these data: Sequences can lack the tags named with a protein. Each block holds one molecule with its values, some of them ahead of it.

Sequences of proteins named here, by UniProt entry; tags and fusion partners are left off. A change or cut given only in a name is not applied to a line headed by its entry. Residues count along the entry.
UniProt P25858: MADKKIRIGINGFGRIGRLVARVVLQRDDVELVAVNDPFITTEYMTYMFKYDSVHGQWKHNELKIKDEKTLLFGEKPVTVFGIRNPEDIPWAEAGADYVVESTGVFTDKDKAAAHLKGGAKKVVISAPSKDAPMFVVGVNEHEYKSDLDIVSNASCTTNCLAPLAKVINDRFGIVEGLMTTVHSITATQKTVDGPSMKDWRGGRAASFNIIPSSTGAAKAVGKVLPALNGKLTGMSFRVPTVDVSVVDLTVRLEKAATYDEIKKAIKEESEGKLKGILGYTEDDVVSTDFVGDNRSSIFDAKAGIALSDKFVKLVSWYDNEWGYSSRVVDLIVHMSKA
UniProt P48491: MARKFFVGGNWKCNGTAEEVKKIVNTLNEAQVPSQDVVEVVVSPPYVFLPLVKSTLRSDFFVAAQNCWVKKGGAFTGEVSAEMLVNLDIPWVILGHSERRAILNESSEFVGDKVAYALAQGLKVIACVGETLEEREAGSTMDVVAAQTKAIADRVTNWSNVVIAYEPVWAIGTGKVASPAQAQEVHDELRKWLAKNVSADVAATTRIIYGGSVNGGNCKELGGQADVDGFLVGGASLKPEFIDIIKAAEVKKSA
UniProt Q42525: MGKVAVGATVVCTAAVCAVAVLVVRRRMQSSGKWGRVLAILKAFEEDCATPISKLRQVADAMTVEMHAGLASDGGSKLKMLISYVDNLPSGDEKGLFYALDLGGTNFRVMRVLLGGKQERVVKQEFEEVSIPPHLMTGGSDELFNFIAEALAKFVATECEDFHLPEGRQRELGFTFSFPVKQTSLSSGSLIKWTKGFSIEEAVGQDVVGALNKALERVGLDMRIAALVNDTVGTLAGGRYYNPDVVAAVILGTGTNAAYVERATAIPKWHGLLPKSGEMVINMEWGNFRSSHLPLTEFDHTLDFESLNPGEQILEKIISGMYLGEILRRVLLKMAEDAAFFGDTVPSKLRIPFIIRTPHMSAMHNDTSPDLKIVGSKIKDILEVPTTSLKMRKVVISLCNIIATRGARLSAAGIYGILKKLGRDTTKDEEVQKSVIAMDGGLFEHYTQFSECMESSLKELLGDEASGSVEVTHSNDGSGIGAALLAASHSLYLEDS
UniProt Q9SKP6, residues 61-315: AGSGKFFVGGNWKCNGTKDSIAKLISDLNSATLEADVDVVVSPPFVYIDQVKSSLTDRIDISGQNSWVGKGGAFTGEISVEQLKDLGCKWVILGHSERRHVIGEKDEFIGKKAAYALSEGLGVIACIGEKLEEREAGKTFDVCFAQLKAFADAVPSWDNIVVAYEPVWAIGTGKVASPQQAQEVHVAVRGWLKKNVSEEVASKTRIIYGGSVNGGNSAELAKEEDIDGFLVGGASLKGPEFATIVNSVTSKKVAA

Key:
[1] = target: T1, ATG101, BiFC fusion (Arabidopsis) (UniProt F4K265); assay: split reporter
T1 sequence: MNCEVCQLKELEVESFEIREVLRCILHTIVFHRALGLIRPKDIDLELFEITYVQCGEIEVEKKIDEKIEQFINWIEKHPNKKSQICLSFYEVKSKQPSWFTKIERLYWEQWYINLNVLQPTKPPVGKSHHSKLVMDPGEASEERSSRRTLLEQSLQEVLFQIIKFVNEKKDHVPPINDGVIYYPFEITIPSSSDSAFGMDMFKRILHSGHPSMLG

[2] = target: T2, ATG8a, BiFC fusion (Arabidopsis) (UniProt Q8LEM4); assay: split reporter
T2 sequence: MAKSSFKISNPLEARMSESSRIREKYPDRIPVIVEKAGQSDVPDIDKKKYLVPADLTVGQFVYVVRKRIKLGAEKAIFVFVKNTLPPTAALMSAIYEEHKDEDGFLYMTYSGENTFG

[3] = target: T3, ATG101, yeast two-hybrid fusion (Arabidopsis) (UniProt F4K265); assay: two-hybrid
T3 sequence: T1 sequence

Myc-ATG101 (Arabidopsis) = target: T4, Myc-ATG101 (Arabidopsis) (UniProt F4K265); assay: co-IP
T4 sequence: T1 sequence

[4] = target: T1, ATG101, BiFC fusion (Arabidopsis); assay: split reporter; remark: listed apart in the source
[5] = target: T5, phosphoglycerate kinase 3 (PGK3), BiFC fusion (Arabidopsis) (UniProt Q9SAJ4); assay: split reporter
T5 sequence: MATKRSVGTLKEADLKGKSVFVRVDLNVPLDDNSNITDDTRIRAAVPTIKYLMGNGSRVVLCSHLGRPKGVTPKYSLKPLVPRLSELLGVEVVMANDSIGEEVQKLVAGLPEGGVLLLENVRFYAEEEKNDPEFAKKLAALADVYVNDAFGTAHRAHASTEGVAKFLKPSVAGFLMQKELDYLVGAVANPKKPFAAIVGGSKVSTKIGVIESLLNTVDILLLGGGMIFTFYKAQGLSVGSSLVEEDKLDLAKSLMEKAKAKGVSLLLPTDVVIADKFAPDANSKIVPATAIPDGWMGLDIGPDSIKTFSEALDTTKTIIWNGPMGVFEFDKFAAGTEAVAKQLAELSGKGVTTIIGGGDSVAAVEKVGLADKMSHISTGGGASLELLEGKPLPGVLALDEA

[6] = target: T6, ATG13b, BiFC fusion (Arabidopsis) (UniProt F4J8V5); assay: split reporter
T6 sequence: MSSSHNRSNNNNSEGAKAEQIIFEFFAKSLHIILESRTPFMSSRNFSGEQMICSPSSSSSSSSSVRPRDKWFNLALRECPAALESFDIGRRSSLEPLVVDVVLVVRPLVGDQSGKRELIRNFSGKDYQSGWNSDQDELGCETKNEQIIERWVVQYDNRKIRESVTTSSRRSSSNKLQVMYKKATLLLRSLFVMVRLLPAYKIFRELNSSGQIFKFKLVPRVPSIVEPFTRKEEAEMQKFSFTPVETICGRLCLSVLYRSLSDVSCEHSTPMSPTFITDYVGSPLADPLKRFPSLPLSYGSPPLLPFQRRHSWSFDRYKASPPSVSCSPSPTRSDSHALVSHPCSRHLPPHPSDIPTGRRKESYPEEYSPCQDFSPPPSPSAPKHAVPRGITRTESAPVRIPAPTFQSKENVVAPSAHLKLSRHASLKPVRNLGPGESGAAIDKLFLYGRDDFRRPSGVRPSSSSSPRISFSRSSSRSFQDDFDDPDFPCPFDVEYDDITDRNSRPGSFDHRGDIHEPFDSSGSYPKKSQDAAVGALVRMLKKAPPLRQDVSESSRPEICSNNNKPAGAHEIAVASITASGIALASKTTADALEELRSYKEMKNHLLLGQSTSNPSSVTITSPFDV

[7] = target: T7, ATG13a, BiFC fusion (Arabidopsis) (UniProt Q9SCK0); assay: split reporter
T7 sequence: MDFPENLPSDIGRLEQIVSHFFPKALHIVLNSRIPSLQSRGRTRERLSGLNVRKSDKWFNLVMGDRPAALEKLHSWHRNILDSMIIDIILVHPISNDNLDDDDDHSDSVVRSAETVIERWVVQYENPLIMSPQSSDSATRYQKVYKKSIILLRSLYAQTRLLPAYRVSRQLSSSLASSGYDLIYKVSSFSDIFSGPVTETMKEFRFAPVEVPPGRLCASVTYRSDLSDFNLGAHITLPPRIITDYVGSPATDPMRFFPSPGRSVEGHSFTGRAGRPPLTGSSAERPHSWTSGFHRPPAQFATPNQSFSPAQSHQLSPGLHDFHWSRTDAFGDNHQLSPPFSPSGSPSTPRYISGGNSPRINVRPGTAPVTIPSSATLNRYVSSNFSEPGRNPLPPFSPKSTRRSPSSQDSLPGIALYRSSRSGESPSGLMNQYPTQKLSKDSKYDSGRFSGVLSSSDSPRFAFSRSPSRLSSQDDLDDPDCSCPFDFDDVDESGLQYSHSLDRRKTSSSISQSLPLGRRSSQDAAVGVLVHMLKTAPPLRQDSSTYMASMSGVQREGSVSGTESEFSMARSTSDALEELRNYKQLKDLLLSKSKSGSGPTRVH

[8] = target: cytosolic phosphorylating glyceraldehyde-3-phosphate dehydrogenase 1 (GAPC1), BiFC fusion (Arabidopsis) (UniProt P25858); assay: split reporter
[9] = target: cytosolic triose phosphate isomerase (CyTPI), yeast two-hybrid fusion (Arabidopsis) (UniProt P48491); assay: two-hybrid
[10] = target: T8, PGK3, yeast two-hybrid fusion (Arabidopsis) (UniProt Q9SAJ4); assay: two-hybrid
T8 sequence: T5 sequence

[11] = target: GAPC1, yeast two-hybrid fusion (Arabidopsis) (UniProt P25858); assay: two-hybrid
[12] = target: HXK1, yeast two-hybrid fusion (Arabidopsis) (UniProt Q42525); assay: two-hybrid
[13] = target: T6, ATG13b, BiFC fusion (Arabidopsis); assay: split reporter; remark: listed apart in the source
[14] = target: T7, ATG13a, BiFC fusion (Arabidopsis); assay: split reporter; remark: listed apart in the source
[15] = target: T3, ATG101, yeast two-hybrid fusion (Arabidopsis); assay: two-hybrid; remark: listed apart in the source

binding [1]: binds
binding [2]: no binding
Molecule: CyTPI^mAIM, BiFC fusion (from UniProt P48491 1-254) (enzyme)

binding [3]: binds
Molecule: GAPC1, yeast two-hybrid fusion (from UniProt P25858 1-338) (enzyme)

binding [1]: binds
binding [2]: no binding
Molecule: GAPC1^mAIM, BiFC fusion (from UniProt P25858 1-338) (enzyme)

binding (Myc-ATG101 (Arabidopsis)): binds
Molecule: HA-CyTPI (from UniProt P48491 1-254) (enzyme)

binding (Myc-ATG101 (Arabidopsis)): binds
Molecule: HA-GAPC1 (from UniProt P25858 1-338) (enzyme)

binding [4]: binds
binding [5]: binds
binding [1]: binds
binding [6]: binds weakly
binding [2]: binds
binding [7]: binds weakly
Molecule: cytosolic phosphorylating glyceraldehyde-3-phosphate dehydrogenase 1 (GAPC1), BiFC fusion (from UniProt P25858 1-338) (enzyme)

binding [4]: binds
binding [5]: binds
binding [1]: binds
binding [6]: binds weakly
binding [8]: binds
binding [2]: binds
binding [7]: binds weakly
Molecule: cytosolic triose phosphate isomerase (CyTPI), BiFC fusion (from UniProt P48491 1-254) (enzyme)

binding [9]: binds
binding [10]: binds
binding [11]: binds
binding [3]: binds
binding [12]: no binding
Molecule: cytosolic triose phosphate isomerase (CyTPI), yeast two-hybrid fusion (from UniProt P48491 1-254) (enzyme)

binding [4]: no binding
binding [13]: no binding
binding [14]: no binding
Molecule: plastidial triose phosphate isomerase (PdTPI), BiFC fusion (from UniProt Q9SKP6 61-315) (enzyme)

binding [4]: binds
binding [13]: binds weakly
binding [14]: binds weakly
B1: phosphoglycerate kinase 3 (PGK3), BiFC fusion (enzyme, UniProt Q9SAJ4 1-401)
chain: T5 sequence

binding [15]: binds
B2: PGK3, yeast two-hybrid fusion (enzyme, UniProt Q9SAJ4 1-401)
chain: T5 sequence

binding (Myc-ATG101 (Arabidopsis)): binds
B3: HA-PGK3 (enzyme, UniProt Q9SAJ4 1-401)
chain: T5 sequence
